Record: PubChem BioAssay AID504793 (Drosophila RNAi Screening Center, 2011)

- Assay: 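Genes required for cells to halt at G2/M after double-strand DNA breaks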 (primary screen)
- Cells: Drosophila S2R+ cells
- Reagents: long dsRNA against Drosophila genes, about 0.25 µg dsRNA per well
- Duration: 4 days of dsRNA, then 4 hours of drug before read-out
- Treatment: doxorubicin 0.5 µM for 4 hours to cause double-strand breaks, in cells also given a low, harmless dose of dsRNA against nbs to sensitise the assay
- Measurement: 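Per-well count of mitotic cells stained for phospho-histone H3 after doxorubicin exposure, used as mitotic index; counts are raw and not normalised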
- Scale: mitotic cells: higher = more cells in mitosis, weaker G2 arrest
- Hit rule: 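a call needs confirmation in secondary tests, with other dsRNAs and a check of mitotic timing without damage, not just a high primary count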
- Calls: active = confirmed in follow-up tests; inactive = not confirmed
The deposit covers about 23,000 reagents; shown is a random part of those that have a named target and a result. Over the whole deposit, 62 (0.27%) are marked active. 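Calls come from follow-up tests whose scores are not deposited, so confirmed genes may have low counts here; counts are not normalised per plate.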 The raw values are shown without normalisation. A plus sign joins genes that one reagent is predicted to hit.

| gene | dsRNA | mitotic cells, replicate 1 | mitotic cells, replicate 2 | Call |
| --- | --- | --- | --- | --- |
| Vmat + CG13330 | DRSC06365 | 9 | – | inactive |
| Vmat + CG13330 | DRSC28600 | 7 | – | inactive |
| Fip1 | DRSC12147 | 4 | – | inactive |
| Rh5 | DRSC03412 | 4 | – | inactive |
| Rh5 | DRSC25429 | 10 | – | inactive |
| CG5758 | DRSC02889 | 9 | 3 | inactive |
| CG5758 | DRSC02890 | 5 | – | inactive |
| CG5758 | DRSC29658 | 4 | – | inactive |
| egr | DRSC06233 | 5 | – | inactive |
| kud | DRSC11086 | 8 | – | inactive |
| CG7806 | DRSC03071 | 3 | – | inactive |
| Vps13 | DRSC06817 | 4 | – | inactive |
| Vps13 | DRSC29275 | 3 | – | inactive |
| CG33061 | DRSC09938 | 3 | – | inactive |
| CG33061 | DRSC22897 | 10 | – | inactive |
| Gr85a | DRSC12760 | 8 | – | inactive |
| Kdsr | DRSC14245 | 14 | – | inactive |
| E2f2 | DRSC03320 | 5 | – | inactive |
| CG9550 | DRSC03262 | 8 | – | inactive |
| CG9550 | DRSC26557 | 2 | – | inactive |
| CG15022 | DRSC08476 | 4 | – | inactive |
| CG15022 | DRSC25079 | 2 | – | inactive |
| CG14780 | DRSC18566 | 14 | – | inactive |
| Rnmt | DRSC03558 | 8 | – | inactive |
| und | DRSC03629 | 1 | – | inactive |
| Cyp313a2 | DRSC16625 | 4 | – | inactive |
| CG31804 | DRSC22728 | 7 | – | inactive |
| Lk | DRSC10022 | 7 | – | inactive |
| side-VII | DRSC14578 | 11 | – | inactive |
| CG14086 | DRSC10090 | 7 | – | inactive |
| Cyp9b2 | DRSC07390 | 5 | – | inactive |
| Cyp9b2 | DRSC24835 | 4 | – | inactive |
| Tim13 | DRSC09848 | 8 | – | inactive |
| Agps | DRSC05984 | 8 | – | inactive |
| Agps | DRSC26742 | 10 | – | inactive |
| SkpB | DRSC07683 | 3 | – | inactive |
| SkpB | DRSC25160 | 8 | – | inactive |
| Khc | DRSC07448 | 6 | – | inactive |
| Khc | DRSC24335 | 6 | – | inactive |
| RabX5 | DRSC08608 | 10 | – | inactive |
| RabX5 | DRSC28950 | 8 | – | inactive |
| Gr57a | DRSC06401 | 4 | – | inactive |
| CG10638 | DRSC09762 | 5 | – | inactive |
| CG10638 | DRSC29762 | 3 | – | inactive |
| asRNA:CR42547 + CG15674 | DRSC04264 | 5 | – | inactive |
| agt | DRSC12611 | 2 | – | inactive |
| FucTB | DRSC02745 | 4 | – | inactive |
| Rac1 | DRSC08688 | 5 | – | inactive |
| Rac1 | DRSC25131 | 2 | – | inactive |
| nau | DRSC17011 | 12 | – | inactive |
| rst | DRSC17243 | 12 | – | inactive |
| rst | DRSC18828 | 16 | – | inactive |
| rst | DRSC25716 | 10 | – | inactive |
| robl62A | DRSC08153 | 2 | – | inactive |
| Acsx1L | DRSC16014 | 15 | – | inactive |
| Acsx1L | DRSC25334 | 9 | – | inactive |
| Sik2 | DRSC18522 | 16 | – | inactive |
| CG2519 | DRSC12312 | 9 | – | inactive |
| FMRFaR | DRSC08555 | 4 | – | inactive |
| CG6761 | DRSC10705 | 5 | – | inactive |
| Rrp46 | DRSC15537 | 6 | – | inactive |
| CG30094 | DRSC22268 | 7 | – | inactive |
| CG30094 | DRSC27064 | 5 | – | inactive |
| CG33286 | DRSC11691 | 4 | – | inactive |
| CG33286 | DRSC26119 | 7 | – | inactive |
| CG32453 | DRSC21673 | 5 | – | inactive |
| CG5255 | DRSC15754 | 4 | – | inactive |
| CG5255 | DRSC24877 | 9 | – | inactive |
| CG6665 | DRSC07006 | 7 | – | inactive |
| Ect3 | DRSC15462 | 2 | – | inactive |
| Ect3 | DRSC25392 | 5 | – | inactive |
| shf | DRSC18283 | 11 | – | inactive |
| shf | DRSC24224 | 5 | – | inactive |
| CG30075 | DRSC05484 | 8 | – | inactive |
| CG32241 | DRSC08100 | 3 | 2 | inactive |
| CG32241 | DRSC21518 | 14 | – | inactive |
| CG32241 | DRSC25178 | 8 | – | inactive |
| CG18518 | DRSC01509 | 5 | – | inactive |
| CG13001 | DRSC24970 | 4 | – | inactive |
| RNF220 | DRSC15652 | 9 | – | inactive |
| RNF220 | DRSC28017 | 7 | – | inactive |
| CG8353 | DRSC03084 | 8 | – | inactive |
| CG8353 | DRSC27248 | 5 | – | inactive |
| spdi | DRSC18487 | 10 | – | inactive |
| spdi | DRSC18488 | 9 | – | inactive |
| CG12307 | DRSC02159 | 5 | – | inactive |
| Pk34A | DRSC03398 | 5 | – | inactive |
| Pk34A | DRSC28021 | 11 | – | inactive |
| CG17385 | DRSC06664 | 5 | – | inactive |
| CG17385 | DRSC26999 | 3 | – | inactive |
| CG3625 | DRSC00621 | 8 | – | inactive |
| Hsp70Bb + Hsp70Ba + Hsp70Bbb | DRSC28114 | 2 | – | inactive |
| CG1801 | DRSC20556 | 8 | – | inactive |
| CG12024 | DRSC08229 | 2 | – | inactive |
| CG12024 | DRSC27391 | 3 | – | inactive |
| CG7737 | DRSC07033 | 1 | – | inactive |
| CG32202 | DRSC09989 | 6 | – | inactive |
| Cyp4d8 | DRSC11131 | 3 | – | inactive |
| Cyp4d8 | DRSC29268 | 5 | – | inactive |
| Rad51D | DRSC06840 | 9 | – | inactive |
| CG6565 | DRSC02970 | 4 | – | inactive |
| Or19a | DRSC20684 | 4 | – | inactive |
| mRpL24 | DRSC03113 | 8 | – | inactive |
| Phb2 | DRSC06512 | 9 | – | inactive |
| CG12836 | DRSC06182 | 4 | – | inactive |
| Hsp70Aa + Hsp70Ab | DRSC21246 | 7 | – | inactive |
| Hsp70Aa + Hsp70Ab | DRSC29327 | 3 | – | inactive |
| CG32061 | DRSC22605 | 7 | – | inactive |
| CG2127 | DRSC06821 | 5 | – | inactive |
| CG30389 | DRSC04077 | 3 | – | inactive |
| CG30389 | DRSC04452 | 9 | – | inactive |
| CG30389 | DRSC26370 | 10 | – | inactive |
